{
  "source": "the supplement of paper PMC8728848",
  "binders": {"B1": {"name": "RobpsCRA (Robinia pseudoacacia) (protein)", "chain": "IKGGYWYSGSGLAVSDINPSHFTHLFCAFADLDPNTNKLTISSSNAAAFSTFTQTVRAKNPSVKTLLSIGGGGGRALAAVFANMASQASRRKSFIDSSIQLARRNNFHGLDLDWEYPSSDIDKTNFASLIREWRAAVATESSTSGTPALLLSAAVGGSDQITPLKYYPGEAIANNLDWVNVMTYDLYTSDSYPTLTQPPAPLFYPRGIFSADEGITKWIQSGVPESKLALGLPFYGFKWRLSDPNNHGLFAPATQGLGAVKYKDIVNTGGQVEFDSTYVTNYCFKGTDWYGYDDTQSISAKVAYAKQRGLFGYFAWHIEQDSNWALS"}},
  "experiment_in_all_cases": "glycan array binding signal (z-score within array); higher = stronger binding",
  "conditions_in_all_cases": "glycan notation: IUPAC condensed, linker removed",
  "key": {"[1]": {"biological_target": "Neu5Ac(a2-6)Gal(b1-4)GlcNAc(b1-2)Man(a1-3)[Neu5Ac(a2-3)Gal(b1-4)GlcNAc(b1-2)Man(a1-6)]Man(b1-4)GlcNAc(b1-4)GlcNAc", "how_it_was_run": "(§1)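 Glycan array data came from 3228 arrays in the Consortium for Functional Glycomics database, and only arrays with an available protein sequence were kept. Glycan names were put into IUPAC-condensed notation, and columns mapping to the same glycan were averaged. The binding signal is a within-array Z-score, averaged across arrays of one protein sequence run at different concentrations or buffers and across linkers. A negative Z-score can be read as non-binding.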"}, "[2]": {"biological_target": "Neu5Ac(a2-6)Gal(b1-4)GlcNAc(b1-2)Man(a1-3)[Neu5Ac(a2-6)Gal(b1-4)GlcNAc(b1-2)Man(a1-6)]Man(b1-4)GlcNAc(b1-4)GlcNAc", "how_it_was_run": "as §1"}, "[3]": {"biological_target": "Neu5Ac(a2-6)Gal(b1-4)GlcNAc(b1-2)Man(a1-3)[Neu5Ac(a2-6)Gal(b1-4)GlcNAc(b1-2)Man(a1-6)]Man(b1-4)GlcNAc(b1-4)[Fuc(a1-6)]GlcNAc", "how_it_was_run": "as §1"}, "[4]": {"biological_target": "Neu5Ac(a2-6)Gal(b1-4)GlcNAc(b1-2)Man(a1-6)Man(b1-4)GlcNAc(b1-4)GlcNAc", "how_it_was_run": "as §1"}, "[5]": {"biological_target": "Neu5Ac(a2-6)Gal(b1-4)GlcNAc(b1-2)Man(a1-6)[Gal(b1-4)GlcNAc(b1-2)Man(a1-3)]Man(b1-4)GlcNAc(b1-4)GlcNAc", "how_it_was_run": "as §1"}, "[6]": {"biological_target": "Neu5Ac(a2-6)Gal(b1-4)GlcNAc(b1-2)Man(a1-6)[GlcNAc(b1-2)Man(a1-3)]Man(b1-4)GlcNAc(b1-4)GlcNAc", "how_it_was_run": "as §1"}, "[7]": {"biological_target": "Neu5Ac(a2-6)Gal(b1-4)GlcNAc(b1-2)Man(a1-6)[Man(a1-3)]Man(b1-4)GlcNAc(b1-4)GlcNAc", "how_it_was_run": "as §1"}, "[8]": {"biological_target": "Neu5Ac(a2-6)Gal(b1-4)GlcNAc(b1-2)[Neu5Ac(a2-6)Gal(b1-4)GlcNAc(b1-4)]Man(a1-3)[GlcNAc(b1-4)][Neu5Ac(a2-6)Gal(b1-4)GlcNAc(b1-2)[Neu5Ac(a2-6)Gal(b1-4)GlcNAc(b1-6)]Man(a1-6)]Man(b1-4)GlcNAc(b1-4)GlcNAc", "how_it_was_run": "as §1"}, "[9]": {"biological_target": "Neu5Ac(a2-6)Gal(b1-4)GlcNAc(b1-2)[Neu5Ac(a2-6)Gal(b1-4)GlcNAc(b1-4)]Man(a1-3)[GlcNAc(b1-4)][Neu5Ac(a2-6)Gal(b1-4)GlcNAc(b1-4)Man(a1-6)]Man(b1-4)GlcNAc(b1-4)GlcNAc", "how_it_was_run": "as §1"}, "[10]": {"biological_target": "Neu5Ac(a2-6)Gal(b1-4)GlcNAc(b1-2)[Neu5Ac(a2-6)Gal(b1-4)GlcNAc(b1-6)]Man(a1-6)[Neu5Ac(a2-6)Gal(b1-4)GlcNAc(b1-2)Man(a1-3)][GlcNAc(b1-4)]Man(b1-4)GlcNAc(b1-4)GlcNAc", "how_it_was_run": "as §1"}, "[11]": {"biological_target": "Neu5Ac(a2-6)Gal(b1-4)GlcNAc(b1-3)Gal(b1-3)GlcNAc", "how_it_was_run": "as §1"}, "[12]": {"biological_target": "Neu5Ac(a2-6)Gal(b1-4)GlcNAc(b1-3)Gal(b1-4)GlcNAc", "how_it_was_run": "as §1"}, "[13]": {"biological_target": "Neu5Ac(a2-6)Gal(b1-4)GlcNAc(b1-3)Gal(b1-4)GlcNAc(b1-2)Man(a1-3)[Neu5Ac(a2-6)Gal(b1-4)GlcNAc(b1-3)Gal(b1-4)GlcNAc(b1-2)Man(a1-6)]GalNAc", "how_it_was_run": "as §1"}, "[14]": {"biological_target": "Neu5Ac(a2-6)Gal(b1-4)GlcNAc(b1-3)Gal(b1-4)GlcNAc(b1-3)Gal(b1-4)GlcNAc", "how_it_was_run": "as §1"}, "[15]": {"biological_target": "Neu5Ac(a2-6)Gal(b1-4)GlcNAc(b1-3)Gal(b1-4)GlcNAc(b1-3)Gal(b1-4)GlcNAc(b1-2)Man(a1-3)[Neu5Ac(a2-6)Gal(b1-4)GlcNAc(b1-3)Gal(b1-4)GlcNAc(b1-3)Gal(b1-4)GlcNAc(b1-2)Man(a1-6)]GalNAc", "how_it_was_run": "as §1"}, "[16]": {"biological_target": "Neu5Ac(a2-6)Gal(b1-4)GlcNAc(b1-3)Gal(b1-4)GlcNAc(b1-3)GalNAc", "how_it_was_run": "as §1"}, "[17]": {"biological_target": "Neu5Ac(a2-6)Gal(b1-4)GlcNAc(b1-3)Gal(b1-4)GlcNAc(b1-3)[Neu5Ac(a2-6)Gal(b1-4)GlcNAc(b1-3)Gal(b1-4)GlcNAc(b1-6)]GalNAc", "how_it_was_run": "as §1"}, "[18]": {"biological_target": "Neu5Ac(a2-6)Gal(b1-4)GlcNAc(b1-3)Gal(b1-4)GlcNAc(b1-6)[Gal(b1-3)]GalNAc", "how_it_was_run": "as §1"}, "[19]": {"biological_target": "Neu5Ac(a2-6)Gal(b1-4)GlcNAc(b1-3)Gal(b1-4)[Fuc(a1-3)]GlcNAc(b1-3)Gal(b1-4)[Fuc(a1-3)]GlcNAc", "how_it_was_run": "as §1"}, "[20]": {"biological_target": "Neu5Ac(a2-6)Gal(b1-4)GlcNAc(b1-3)GalNAc", "how_it_was_run": "as §1"}, "[21]": {"biological_target": "Neu5Ac(a2-6)Gal(b1-4)GlcNAc(b1-3)[Neu5Ac(a2-6)Gal(b1-4)GlcNAc(b1-6)]GalNAc", "how_it_was_run": "as §1"}, "[22]": {"biological_target": "Neu5Ac(a2-6)Gal(b1-4)GlcNAc(b1-6)GalNAc", "how_it_was_run": "as §1"}, "[23]": {"biological_target": "Neu5Ac(a2-6)Gal(b1-4)GlcNAc(b1-6)[Gal(b1-3)GlcNAc(b1-3)]Gal(b1-4)Glc", "how_it_was_run": "as §1"}, "[24]": {"biological_target": "Neu5Ac(a2-6)Gal(b1-4)GlcNAc(b1-6)[Gal(b1-3)]GalNAc", "how_it_was_run": "as §1"}, "[25]": {"biological_target": "Neu5Ac(a2-6)Gal(b1-4)GlcNAc6S", "how_it_was_run": "as §1"}, "Neu5Ac(a2-6)GalNAc": {"biological_target": "Neu5Ac(a2-6)GalNAc", "how_it_was_run": "as §1"}, "[26]": {"biological_target": "Neu5Ac(a2-6)GalNAc(b1-4)GlcNAc", "how_it_was_run": "as §1"}, "[27]": {"biological_target": "Neu5Ac(a2-6)GalNAc(b1-4)GlcNAc6S", "how_it_was_run": "as §1"}, "[28]": {"biological_target": "Neu5Ac(a2-6)GlcNAc(b1-4)GlcNAc", "how_it_was_run": "as §1"}, "[29]": {"biological_target": "Neu5Ac(a2-6)GlcNAc(b1-4)GlcNAc(b1-4)GlcNAc", "how_it_was_run": "as §1"}},
  "note": "The other results are listed elsewhere or left out.",
  "data": [
    {"binder": "B1", "values": [
      {"measurement": "glycan array binding signal (z-score)", "setting": "[1]", "value": -0.519},
      {"measurement": "glycan array binding signal (z-score)", "setting": "[2]", "value": 0.343},
      {"measurement": "glycan array binding signal (z-score)", "setting": "[3]", "value": 0.574},
      {"measurement": "glycan array binding signal (z-score)", "setting": "[4]", "value": -0.79},
      {"measurement": "glycan array binding signal (z-score)", "setting": "[5]", "value": -0.048},
      {"measurement": "glycan array binding signal (z-score)", "setting": "[6]", "value": -0.328},
      {"measurement": "glycan array binding signal (z-score)", "setting": "[7]", "value": 1.67},
      {"measurement": "glycan array binding signal (z-score)", "setting": "[8]", "value": 0.638},
      {"measurement": "glycan array binding signal (z-score)", "setting": "[9]", "value": -0.365},
      {"measurement": "glycan array binding signal (z-score)", "setting": "[10]", "value": 0.772},
      {"measurement": "glycan array binding signal (z-score)", "setting": "[11]", "value": 0.116},
      {"measurement": "glycan array binding signal (z-score)", "setting": "[12]", "value": -0.168},
      {"measurement": "glycan array binding signal (z-score)", "setting": "[13]", "value": 0.109},
      {"measurement": "glycan array binding signal (z-score)", "setting": "[14]", "value": -0.505},
      {"measurement": "glycan array binding signal (z-score)", "setting": "[15]", "value": 1.18},
      {"measurement": "glycan array binding signal (z-score)", "setting": "[16]", "value": -0.398},
      {"measurement": "glycan array binding signal (z-score)", "setting": "[17]", "value": -0.335},
      {"measurement": "glycan array binding signal (z-score)", "setting": "[18]", "value": -0.564},
      {"measurement": "glycan array binding signal (z-score)", "setting": "[19]", "value": -0.076},
      {"measurement": "glycan array binding signal (z-score)", "setting": "[20]", "value": -0.048},
      {"measurement": "glycan array binding signal (z-score)", "setting": "[21]", "value": -0.249},
      {"measurement": "glycan array binding signal (z-score)", "setting": "[22]", "value": 0.634},
      {"measurement": "glycan array binding signal (z-score)", "setting": "[23]", "value": 0.487},
      {"measurement": "glycan array binding signal (z-score)", "setting": "[24]", "value": -0.951},
      {"measurement": "glycan array binding signal (z-score)", "setting": "[25]", "value": -0.072},
      {"measurement": "glycan array binding signal (z-score)", "setting": "Neu5Ac(a2-6)GalNAc", "value": -0.839},
      {"measurement": "glycan array binding signal (z-score)", "setting": "[26]", "value": -0.929},
      {"measurement": "glycan array binding signal (z-score)", "setting": "[27]", "value": -0.23},
      {"measurement": "glycan array binding signal (z-score)", "setting": "[28]", "value": 0.265},
      {"measurement": "glycan array binding signal (z-score)", "setting": "[29]", "value": -0.344}
    ]}
  ]
}
